In article PMC10032668:
These are yes or no findings as the source states them, for the method shown. In cells and extracts the contact can be indirect. A result given as binding can be weak or reduced; the word gives no strength. Sequences can lack the tags named with a protein.

Molecular target: V5-tagged PVT1-MP (human)
Test: proximity ligation; Duolink in situ PLA in fixed HeLa cells co-overexpressing PVT1-MP-V5 and SRSF2-FLAG; anti-V5 rabbit and anti-FLAG mouse antibodies; controls with single or no primary antibody and untransfected cells

B1: FLAG-tagged SRSF2 (protein, UniProt Q01130 1-221)
chain: MSYGRPPPDVEGMTSLKVDNLTYRTSPDTLRRVFEKYGRVGDVYIPRDRYTKESRGFAFVRFHDKRDAEDAMDAMDGAVLDGRELRVQMARYGRPPDSHHSRRGPPPRRYGGGGYGRRSRSPRRRRRSRSRSRSRSRSRSRSRYSRSKSRSRTRSRSRSTSKSRSARRSKSKSSSVSRSRSRSRSRSRSRSPPPVSKRESKSRSRSKSPPKSPEEEGAVSS
With B1 the binding was “binds”.
